Results as given in patent publication US12280087B2, “Composition comprising self-assembling peptides for use in treatment of gingivitis, periodontitis and/or peri-implantitis” (Credentis AG, priority 2016, dated 2025).
Not every detail of the peptide structures is certain; ends, links or a residue may be inferred.

System: bacteria
Assay: Degradation of P11-4 over 3 days in the presence of bacteria (Qubit protein assay)
Settings: 100 μl peptide/well, c=20 mg/ml, in PBS

## Ac-QQRFEWEFEQQ-NH2 [P11-4, QQRFEWEFEQQ]
3 days
  effect of bacteria on stability: not significantly affected
Presence of bacteria
  time over which the peptide is stable: more than 3 days
